Source: the supplement of paper PMC3334620
Whole data set: some 33,000 sequences, median “E-score (-0.5 to 0.5)” near -0.0059, cut for the highest 2% near 0.26. Some of the results follow.

Each sequence was assayed against T1, Cin5 (UniProt P40917) (assay: PBM E-score (8-mer binding enrichment) (E-score (-0.5 to 0.5)); higher = stronger / more preferred TF binding). Settings: protein concentration: 100 nM; construct: GST-full length.
T1 sequence: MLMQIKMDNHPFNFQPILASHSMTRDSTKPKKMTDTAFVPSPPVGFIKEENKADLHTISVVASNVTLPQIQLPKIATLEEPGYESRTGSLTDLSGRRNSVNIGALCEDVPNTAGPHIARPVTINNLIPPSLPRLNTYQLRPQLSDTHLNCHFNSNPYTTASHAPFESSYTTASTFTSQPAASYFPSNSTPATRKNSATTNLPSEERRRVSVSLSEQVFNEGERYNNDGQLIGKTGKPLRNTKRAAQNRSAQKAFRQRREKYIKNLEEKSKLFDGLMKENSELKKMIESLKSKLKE
How it was run: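 Each ungapped eight-base word and its reverse complement, pooled, received an E-score from the Universal PBM Analysis Suite. Underlying scans, normalised with masliner, recorded fluorescent anti-GST bound to GST-tagged yeast transcription factors. These were applied at about 100-200 nM to universal all-10-mer Agilent arrays double-stranded by primer extension.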
With CGGATTTC the “PBM E-score” value was 0.00244. TCAGGGGA was tested, and the “PBM E-score” value was -0.0109. In the case of AAATCTCG, the “PBM E-score” value is reported as 0.0688. AGTCCCAT was tested, and the “PBM E-score” value was -0.127. For TCTGTCCA, the “PBM E-score” value was 0.00147. In the case of CTTCATCC, the “PBM E-score” value is reported as 0.00701. In the case of AGAATCAT, the “PBM E-score” value is reported as 0.0959. For CTCGAGCA, the “PBM E-score” value was 0.117. In the case of ACAAGTGC, the “PBM E-score” value is reported as -0.0687. In the case of CGGCCTTA, the “PBM E-score” value is reported as 0.0192. For AGCGATGC, the “PBM E-score” value was -0.176. With GCGTGGCC the “PBM E-score” value was -0.253. In the case of ATTGGTAA, the “PBM E-score” value is reported as 0.193. In the case of ACAGATGA, the “PBM E-score” value is reported as 0.0554. With AACACCCT the “PBM E-score” value was -0.13. In the case of ACGGGGAA, the “PBM E-score” value is reported as -0.00505. In the case of AAACCAGA, the “PBM E-score” value is reported as 0.0316. With GGACTGAA the “PBM E-score” value was -0.0795. CCAGTGTC was tested, and the “PBM E-score” value was -0.0197. AGCGGTTC was tested, and the “PBM E-score” value was -0.00708. ACACCTAA was tested, and the “PBM E-score” value was 0.0735. In the case of ACGGAATG, the “PBM E-score” value is reported as 0.142. With GCAAACTA the “PBM E-score” value was 0.077. CAGAAACA was tested, and the “PBM E-score” value was -0.00473. AATCCGAT was tested, and the “PBM E-score” value was 0.24. With ATCTCTGA the “PBM E-score” value was -0.116. For CCTAACCG, the “PBM E-score” value was -0.128. With GCTCTTCC the “PBM E-score” value was -0.26. In the case of AAACCGAC, the “PBM E-score” value is reported as 0.142. For CAAAACGG, the “PBM E-score” value was 0.00719. ACTTGAAG was tested, and the “PBM E-score” value was -0.018. For CGTGCCGC, the “PBM E-score” value was -0.0988. ACACTGAG was tested, and the “PBM E-score” value was -0.091. In the case of ATTCATCG, the “PBM E-score” value is reported as 0.116. In the case of TCATAAAA, the “PBM E-score” value is reported as 0.0167. In the case of AAGCCCTC, the “PBM E-score” value is reported as -0.0392. In the case of CCGCGGGC, the “PBM E-score” value is reported as 0.0691. With CTAAATGA the “PBM E-score” value was 0.0422. In the case of ATCAAGCC, the “PBM E-score” value is reported as -0.0172. With AAAGTGGT the “PBM E-score” value was 0.115. With ACACATAC the “PBM E-score” value was 0.0411. GGGAATAC was tested, and the “PBM E-score” value was 0.0953. With GGATGCCA the “PBM E-score” value was -0.157. In the case of GGTCAGTA, the “PBM E-score” value is reported as -0.0707. In the case of TAGCACTA, the “PBM E-score” value is reported as 0.0846. In the case of ACAGTCTA, the “PBM E-score” value is reported as -0.136. CCACTTGA was tested, and the “PBM E-score” value was 0.139. In the case of GCTATTAC, the “PBM E-score” value is reported as 0.0669. In the case of ACCAACCT, the “PBM E-score” value is reported as -0.0401. CTAAACAA was tested, and the “PBM E-score” value was -0.0966. In the case of ATCCCCCG, the “PBM E-score” value is reported as -0.269. For CGTTAATC, the “PBM E-score” value was 0.137. With CGAGGGGA the “PBM E-score” value was -0.111. In the case of AGGTAAAT, the “PBM E-score” value is reported as 0.0494. With CGGGGCTC the “PBM E-score” value was -0.2. GGTGATAA was tested, and the “PBM E-score” value was 0.0222. For GAACCGAA, the “PBM E-score” value was 0.0343. GGGAAACC was tested, and the “PBM E-score” value was 0.168. In the case of AAATCCGG, the “PBM E-score” value is reported as 0.0545. With CATCACCC the “PBM E-score” value was -0.00304. With GGAGCAAC the “PBM E-score” value was -0.0784. ACAGCGCT was tested, and the “PBM E-score” value was 0.0569. For AAGTTGAC, the “PBM E-score” value was 0.00765. With CAAAAGCA the “PBM E-score” value was -0.0485. For AGCGAAGC, the “PBM E-score” value was -0.181. With GTGAAAAC the “PBM E-score” value was 0.0992. With CAGGAAAC the “PBM E-score” value was -0.0166. With AACTTACG the “PBM E-score” value was 0.148. With TTAATCAA the “PBM E-score” value was 0.166. In the case of GTACTATA, the “PBM E-score” value is reported as 0.125. With CCGAGACC the “PBM E-score” value was -0.0636. In the case of CGCAAGAA, the “PBM E-score” value is reported as 0.101. CCGAGACG was tested, and the “PBM E-score” value was -0.0491. AACTGCCG was tested, and the “PBM E-score” value was -0.0171. GCAAGAAA was tested, and the “PBM E-score” value was 0.071. ATCGTATC was tested, and the “PBM E-score” value was 0.0617. With AATACCGG the “PBM E-score” value was 0.106. In the case of AGTCCTTG, the “PBM E-score” value is reported as -0.177. With GGACGGAC the “PBM E-score” value was -0.126. In the case of GATGGCAA, the “PBM E-score” value is reported as 0.154. For TAAAGCTA, the “PBM E-score” value was -0.196. With AGTGCCCA the “PBM E-score” value was 0.0274. For CGCCGCTA, the “PBM E-score” value was 0.0609. In the case of AACGGTCA, the “PBM E-score” value is reported as -0.0092. With GCAGGGCC the “PBM E-score” value was -0.191. In the case of CGACTTTC, the “PBM E-score” value is reported as 0.00548. In the case of GCACAGTA, the “PBM E-score” value is reported as 0.1. With CATGGGAC the “PBM E-score” value was -0.0553. CTCACTAA was tested, and the “PBM E-score” value was 0.169. In the case of GCCAGATA, the “PBM E-score” value is reported as -0.0428. With CTAATATC the “PBM E-score” value was 0.235. For ACCATCAA, the “PBM E-score” value was -0.00606. With CCGTCAGC the “PBM E-score” value was -0.0655. For CCTATAGC, the “PBM E-score” value was 0.00418.
